According to patent US20220002395A1 (FAPON BIOTECH, published 2022):
Substitutions are numbered along the chain they refer to. These are yes or no findings as the source states them, for the method shown. Some results given as binding are weak or reduced against the parent protein; the word gives no strength. Sequences can lack the tags named with a protein.

B1: Anti-HRP-II 3R5 monoclonal antibody (recombinant, expressed in CHO cells; WT) (antibody, mouse IgG2b, kappa, V domains shown)
VH: EVQLQQSGPEVVKPGASVKISCKASGSTLTEYYMNWVKQSHGKGLEWIGDLNPINGGTPYQQKFRDKATLTVDKSSNTAYMELRSLTSEDSALYYCTRGAEEYWGQGTTLTVSS
VL: DVVLTQTPLSLSVTIGQPASISCKSSQSIIYSNGKIYINWFQQRPGQSPKRLMYQLSKIDPGIPDRFSGSGSETDFTLKISRVEAEDLGVYYCLQGTYSPNTFGGGTKLEIKR
notes: Mouse IgG; also called Anti-HRP-H3R5; CHO transient-transfected cell supernatant
B2: Mutation 1 (antibody, mouse IgG2b, kappa, V domains shown)
VH: B1 VH with E31D, P59A, E102D
VL: B1 VL with I38L, I59L, N101Q
notes: also called Variant 1
B3: Mutation 2 (antibody, mouse IgG2b, kappa, V domains shown)
VH: B1 VH
VL: B1 VL with I38L
notes: WT as framework

How the values were obtained:
[1] = target: T1, Plasmodium falciparum histidine-rich protein II (HRP-II) (Plasmodium falciparum) (UniProt P05227); experiment: indirect ELISA, coated HRP-II
T1 sequence (looked up): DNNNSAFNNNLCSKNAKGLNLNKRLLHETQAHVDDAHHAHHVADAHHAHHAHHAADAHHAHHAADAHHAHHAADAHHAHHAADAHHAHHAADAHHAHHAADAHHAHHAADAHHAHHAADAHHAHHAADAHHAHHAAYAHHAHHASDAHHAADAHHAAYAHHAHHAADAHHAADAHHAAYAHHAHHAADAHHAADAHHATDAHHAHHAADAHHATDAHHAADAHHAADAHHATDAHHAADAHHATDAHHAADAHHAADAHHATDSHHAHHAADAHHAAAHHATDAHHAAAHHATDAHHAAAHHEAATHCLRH

[2] = target: T1, Plasmodium falciparum histidine-rich protein II (HRP-II) (Plasmodium falciparum); experiment: indirect ELISA, coated MA-HRPII Ag
[3] = target: T1, Plasmodium falciparum histidine-rich protein II (HRP-II) (Plasmodium falciparum); experiment: ELISA activity and ELISA-derived affinity

Binder | binding [1] | binding [2] | binding [3]
B1 | binds | – | –
B2 | – | binds | binds
B3 | – | binds | –
